Measurements published in the supplement of paper PMC6078165.
± gives the standard deviation of the averaged measurements. The reference is the same well before dosing, and untreated signal decays as well.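 Labels refer to human fibroblasts, largely primary: uterine (C12385, HUF), lung (H6013), bone (Hs27A), adrenal (HADF), skin (WS1), plus mammary HMF and breast cancer-associated Hs343T. Cancer lines are basal-like or mesenchymal-like triple-negative breast cancer. The paper counts as hits responses shifting over 3x the replicate standard deviation. The tissue of the other fibroblasts is not given here.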

System: Hs578T
Experiment: relative JC-1 red fluorescence (viability) vs pre-drug, coculture with fibroblast (fraction); higher = more viable cancer cells
Conditions: 0.1 µM
Description: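 JC-1 labelled TNBC cells cocultured 1:1 (1,500 cells each) with CellTrace Violet stained primary or stromal fibroblasts in 384-well plates in FluoroBrite medium, treated with one of 42 anticancer drugs at 0.1, 1, 10 or 100 uM. JC-1 red fluorescence (mitochondrial integrity in cancer cells only) was read by plate reader every 8 h for 72 h. Values are normalised to each well's pre-drug value. The stock of one drug was tenfold lower, so its dose labels may be too high.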

CO[C@H]1C[C@@H]2CC[C@@H](C)[C@@](O)(O2)C(=O)C(=O)N2CCCC[C@H]2C(=O)O[C@H]([C@H](C)C[C@@H]2CC[C@@H](OCCO)[C@H](OC)C2)CC(=O)[C@H](C)/C=C(\C)[C@@H](O)[C@@H](OC)C(=O)[C@H](C)C[C@H](C)/C=C/C=C/C=C/1C [Everolimus]
Conditions	relative JC-1 red fluorescence
8 h	0.9302 ± 0.006
16 h	0.806 ± 0.0092
24 h	0.7109 ± 0.00083
32 h	0.664 ± 0.0097
40 h	0.589 ± 0.0073
48 h	0.545 ± 0.0055
56 h	0.516 ± 0.0084
64 h	0.473 ± 0.017
72 h	0.463 ± 0.015

relative JC-1 red fluorescence
Conditions	8 h	16 h	24 h	32 h	40 h	48 h	56 h	64 h	72 h
coculture fibroblast: C12385	0.8189 ± 0.00086	0.688 ± 0.0084	0.676 ± 0.012	0.596 ± 0.034	0.544 ± 0.025	0.519 ± 0.018	0.499 ± 0.017	0.5 ± 0.017	0.505 ± 0.016
coculture fibroblast: H6013	0.837 ± 0.016	0.769 ± 0.024	0.712 ± 0.035	0.689 ± 0.047	0.643 ± 0.044	0.635 ± 0.054	0.617 ± 0.057	0.614 ± 0.063	0.593 ± 0.062
coculture fibroblast: H6019	0.77 ± 0.0093	0.684 ± 0.016	0.648 ± 0.026	0.563 ± 0.021	0.531 ± 0.011	0.5099 ± 0.0015	0.4916 ± 0.0016	0.4811 ± 0.00078	0.4651 ± 0.0025
coculture fibroblast: H6076	0.8619 ± 0.0011	0.783 ± 0.011	0.7472 ± 0.0049	0.7369 ± 0.005	0.703 ± 0.011	0.701 ± 0.017	0.691 ± 0.017	0.698 ± 0.015	0.707 ± 0.019
coculture fibroblast: H6231	0.873 ± 0.014	0.738 ± 0.015	0.687 ± 0.021	0.647 ± 0.022	0.59 ± 0.024	0.568 ± 0.026	0.529 ± 0.029	0.515 ± 0.035	0.504 ± 0.035
coculture fibroblast: HADF	0.891 ± 0.0092	0.7958 ± 0.0057	0.725 ± 0.025	0.676 ± 0.044	0.638 ± 0.064	0.615 ± 0.062	0.584 ± 0.066	0.575 ± 0.053	0.546 ± 0.051
coculture fibroblast: HCFa	0.833 ± 0.019	0.752 ± 0.038	0.7 ± 0.061	0.646 ± 0.077	0.588 ± 0.083	0.577 ± 0.088	0.552 ± 0.092	0.539 ± 0.091	0.51 ± 0.092
coculture fibroblast: HCPF	0.888 ± 0.012	0.786 ± 0.014	0.736 ± 0.011	0.709 ± 0.0042	0.6532 ± 0.001	0.6341 ± 0.0054	0.6194 ± 0.0022	0.592 ± 0.0051	0.5861 ± 0.0046
coculture fibroblast: HHSteC	0.8607 ± 0.008	0.754 ± 0.026	0.71 ± 0.025	0.66 ± 0.042	0.615 ± 0.05	0.589 ± 0.054	0.575 ± 0.052	0.556 ± 0.058	0.532 ± 0.066
coculture fibroblast: HMF	0.881 ± 0.057	0.776 ± 0.055	0.709 ± 0.022	0.6902 ± 0.0048	0.626 ± 0.0078	0.6036 ± 0.0031	0.571 ± 0.014	0.548 ± 0.019	0.539 ± 0.022
coculture fibroblast: HPFa	0.883 ± 0.011	0.7477 ± 0.0054	0.681 ± 0.014	0.611 ± 0.014	0.556 ± 0.019	0.522 ± 0.03	0.482 ± 0.027	0.468 ± 0.03	0.431 ± 0.025
coculture fibroblast: HUF	0.883 ± 0.045	0.746 ± 0.068	0.735 ± 0.091	0.653 ± 0.084	0.601 ± 0.078	0.568 ± 0.074	0.544 ± 0.075	0.543 ± 0.062	0.532 ± 0.068
coculture fibroblast: Hs27A	0.8655 ± 0.0033	0.796 ± 0.018	0.748 ± 0.013	0.7127 ± 0.0027	0.6663 ± 0.0055	0.6693 ± 0.0032	0.647 ± 0.008	0.6445 ± 0.0052	0.609 ± 0.008
coculture fibroblast: Hs343T	0.923 ± 0.039	0.80807 ± 0.00012	0.749 ± 0.022	0.723 ± 0.021	0.657 ± 0.031	0.635 ± 0.025	0.596 ± 0.033	0.578 ± 0.028	0.575 ± 0.029
coculture fibroblast: WS1	0.807 ± 0.018	0.684 ± 0.018	0.648 ± 0.0074	0.552 ± 0.015	0.499 ± 0.0095	0.488 ± 0.016	0.466 ± 0.014	0.468 ± 0.013	0.476 ± 0.012
